Some of these results come from one statement about several compounds together.
Test system: housefly imagos
Experiment: Test Example 1: spray test on housefly imagos, lethal rate one day later
Type: in vivo
Settings: 0.1% (w/v) test solution, 0.5 ml sprayed, dead counted one day later, average of two repetitions

Row | SMILES | lethal rate of houseflies
1 | COCc1c(F)c(F)c(COC(=O)[C@@H]2C(/C=C(\Cl)C#N)C2(C)C)c(F)c1F (stereo in doubt) [compound (1), 2,3,5,6-tetrafluoro-4-methoxymethylbenzyl (1R,3S)-3-((Z)-2-chloro-2-cyanovinyl)-2,2-dimethylcyclopropanecarboxylate] | ≥ 90%
2 | COCc1c(F)c(F)c(COC(=O)[C@@H]2C(/C=C(/Cl)C#N)C2(C)C)c(F)c1F (stereo in doubt) [compound (2), 2,3,5,6-tetrafluoro-4-methoxymethylbenzyl (1R,3S)-3-((E)-2-chloro-2-cyanovinyl)-2,2-dimethylcyclopropanecarboxylate] | ≥ 90%
3 | COCc1c(F)c(F)c(COC(=O)[C@@H]2C(/C=C(\Cl)C#N)C2(C)C)c(F)c1F (stereo in doubt) [compound (3), 2,3,5,6-tetrafluoro-4-methoxymethylbenzyl (1R,3R)-3-((Z)-2-chloro-2-cyanovinyl)-2,2-dimethylcyclopropanecarboxylate] | ≥ 90%
4 | COCc1c(F)c(F)c(COC(=O)[C@@H]2C(/C=C(/Cl)C#N)C2(C)C)c(F)c1F (stereo in doubt) [compound (4), 2,3,5,6-tetrafluoro-4-methoxymethylbenzyl (1R,3R)-3-((E)-2-chloro-2-cyanovinyl)-2,2-dimethylcyclopropanecarboxylate] | ≥ 90%

From patent publication US8048916B2, “Ester compound and use thereof” (Sumitomo Chemical Company, Limited, priority 2007, dated 2011)
